From PubChem BioAssay AID272 (DTP/NCI, 2004)
The list shows only some results of the screen, not a fair sample: it gathers tests that were run many times, whatever their T/C, doses with no T/C, and many T/C values between a quarter and a half above the control. Other doses and runs of a compound stand elsewhere. T/C is the treated group as % of the vehicle group. Some entries give survivors of the animals treated and no T/C: the source files T/C as zero there, which appears to mark a toxic dose or a test without result, not a measured value. Some survivor counts are full or nearly so, which does not show that the dose was tolerated: survival well below the control is almost never listed, so the zero probably covers shortened survival too. Survivors were counted at the toxicity check, usually on the fifth day, unless a day is given; later deaths do not show. Schedule codes are those of the source, taken here to give the interval after Q, in days (D) or hours (H), and the number of doses after X. Some schedule codes hold Z or #, which are not explained here. Some entries hold several experiments; the results are listed from low to high. For survival time, this PubChem deposit counts one and a half times the control or more as active, and values a quarter to a half above the control carry no call in these data; other NCI protocols may use other cut-offs. Some T/C values carry the count of animals alive at the toxicity check (mostly the fifth day); without a count, all were alive then.

Tested on: Lewis lung carcinoma i.m., BDF1 mice, T/C %
Experiment: NCI In Vivo Anticancer Drug Screen. Data for tumor model Lewis Lung Carcinoma (intramuscular) in B6D2F1 (BDF1) mice
In short: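 Value is the ratio of a treated-group measurement (T) to the matching vehicle-control measurement (C), using either survival or tumour size in mice bearing transplanted tumours.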

[1] = T/C endpoint: median survival time, dose: 20.0 mg/kg/injection, schedule: Q01DX011 (ip), vehicle: saline, higher T/C = longer survival
[2] = T/C endpoint: median survival time, dose: 50.0 mg/kg/injection, schedule: Q01DX011 (ip), vehicle: saline, higher T/C = longer survival

With `N#Cc1c(F)c(F)c(C#N)c(F)c1F` the survivor count (T/C endpoint: median survival time, dose: 2.5 mg/kg/injection, schedule: Q01DX011 (ip), vehicle: saline with Tween-80, higher T/C = longer survival) was 8 of 8 and the survivor count (T/C endpoint: median survival time, dose: 5.0 mg/kg/injection, schedule: Q01DX011 (ip), vehicle: saline with Tween-80, higher T/C = longer survival) was 8 of 8.
`CC(=O)OC(C1CO1)C(OC(C)=O)C1CO1` (stereo not drawn) was tested, and the survivor count [1] was 10 of 10.
`Cn1cnc([N+](=O)[O-])c1Sc1ncnc2c1ncn2C1OC(CO)C(O)C1O` (stereo not drawn) was tested, and the survivor count (T/C endpoint: mean tumor weight, dose: 50.0 mg/kg/injection, schedule: Q01DX011 (ip), vehicle: saline, higher T/C = larger tumour) was 5 of 8, the survivor count (T/C endpoint: mean tumor weight, dose: 100.0 mg/kg/injection, schedule: Q01DX011 (ip), vehicle: saline, higher T/C = larger tumour) was 5 of 8 and the survivor count (T/C endpoint: mean tumor weight, dose: 200.0 mg/kg/injection, schedule: Q01DX011 (ip), vehicle: saline, higher T/C = larger tumour) was 2 of 8. For the same compound, the survivor count [2] was 5 of 8, the survivor count (T/C endpoint: median survival time, dose: 100.0 mg/kg/injection, schedule: Q01DX011 (ip), vehicle: saline, higher T/C = longer survival) was 5 of 8 and the survivor count (T/C endpoint: median survival time, dose: 200.0 mg/kg/injection, schedule: Q01DX011 (ip), vehicle: saline, higher T/C = longer survival) was 2 of 8. For the same compound, the survivor count (T/C endpoint: median survival time, dose: 400.0 mg/kg/injection, schedule: Q01DX011 (ip), vehicle: saline, higher T/C = longer survival) was 1 of 8.
In the case of `O=NN(CCCl)C(=O)NCCCl`, the T/C (T/C endpoint: median survival time, dose: 2.0 mg/kg/injection, schedule: Q01DX009 (ip), vehicle: saline + alcohol, higher T/C = longer survival) is reported as 129 % of control, the survivor count (T/C endpoint: median survival time, dose: 2.0 mg/kg/injection, schedule: Q01DX011 (ip), vehicle: saline, higher T/C = longer survival) is reported as 10 of 10 and the T/C (T/C endpoint: median survival time, dose: 3.0 mg/kg/injection, schedule: Q01DX011 (ip), vehicle: saline, higher T/C = longer survival) is reported as 144 % of control. For the same compound, the T/C (T/C endpoint: median survival time, dose: 4.0 mg/kg/injection, schedule: Q01DX011 (ip), vehicle: saline, higher T/C = longer survival) was 134 % of control, the survivor count (T/C endpoint: median survival time, dose: 5.0 mg/kg/injection, schedule: Q07DX003 (ip), vehicle: saline, higher T/C = longer survival) was 8 of 8 and the T/C (T/C endpoint: median survival time, dose: 6.0 mg/kg/injection, schedule: Q01DX011 (ip), vehicle: other, higher T/C = longer survival) was 130 % of control [7 of 8 alive]. For the same compound, the T/C (T/C endpoint: median survival time, dose: 8.0 mg/kg/injection, schedule: Q01DX009 (ip), vehicle: saline + alcohol, higher T/C = longer survival) was 134 % of control, the survivor count (T/C endpoint: median survival time, dose: 8.4 mg/kg/injection, schedule: Q07DX003 (ip), vehicle: saline, higher T/C = longer survival) was 8 of 8 and the T/C (T/C endpoint: median survival time, dose: 8.4 mg/kg/injection, schedule: Q16DX002 (ip), vehicle: saline, higher T/C = longer survival) was 141 % of control. The T/C (T/C endpoint: median survival time, dose: 8.4 mg/kg/injection, schedule: Q## X002 (ip), vehicle: saline, higher T/C = longer survival) was 142 % of control, the survivor count (T/C endpoint: median survival time, dose: 10.0 mg/kg/injection, schedule: Q01DX015 (ip), vehicle: saline, higher T/C = longer survival) was 8 of 8 and the survivor count (T/C endpoint: median survival time, dose: 12.0 mg/kg/injection, schedule: Q01DX011 (ip), vehicle: other, higher T/C = longer survival) was 4 of 8. For the same compound, the survivor count (T/C endpoint: median survival time, dose: 12.0 mg/kg/injection, schedule: Q01DX011 (ip), vehicle: saline, higher T/C = longer survival) was 3 of 8, the survivor count (T/C endpoint: median survival time, dose: 16.0 mg/kg/injection, schedule: Q01DX009 (ip), vehicle: saline + alcohol, higher T/C = longer survival) was 10 of 10 and the survivor count (T/C endpoint: median survival time, dose: 16.0 mg/kg/injection, schedule: Q01DX011 (ip), vehicle: saline, higher T/C = longer survival) was 5 of 10. For the same compound, the T/C (T/C endpoint: median survival time, dose: 23.0 mg/kg/injection, schedule: Q01DX001 (sc), vehicle: saline, higher T/C = longer survival) was 145 % of control, the survivor count (T/C endpoint: median survival time, dose: 32.0 mg/kg/injection, schedule: Q01DX011 (ip), vehicle: saline, higher T/C = longer survival) was 0 of 10 and 8 of 10 and the T/C (T/C endpoint: median survival time, dose: 39.0 mg/kg/injection, schedule: Q01DX001 (sc), vehicle: saline, higher T/C = longer survival) was 143 % of control. For the same compound, the survivor count (T/C endpoint: median survival time, dose: 39.0 mg/kg/injection, schedule: Q07DX003 (ip), vehicle: saline, higher T/C = longer survival) was 7 of 8, the survivor count (T/C endpoint: median survival time, dose: 39.0 mg/kg/injection, schedule: Q## X002 (ip), vehicle: saline, higher T/C = longer survival) was 4 of 8 and the survivor count (T/C endpoint: median survival time, dose: 40.0 mg/kg/injection, schedule: Q07DX003 (ip), vehicle: saline, higher T/C = longer survival) was 8 of 8. For the same compound, the survivor count (T/C endpoint: median survival time, dose: 64.0 mg/kg/injection, schedule: Q01DX011 (ip), vehicle: saline, higher T/C = longer survival) was 0 of 10, the survivor count (T/C endpoint: median survival time, dose: 65.0 mg/kg/injection, schedule: Q01DX001 (ip), vehicle: saline, higher T/C = longer survival) was 0 of 8 and the survivor count (T/C endpoint: median survival time, dose: 65.0 mg/kg/injection, schedule: Q01DX001 (sc), vehicle: saline, higher T/C = longer survival) was 8 of 8. For the same compound, the survivor count (T/C endpoint: median survival time, dose: 65.0 mg/kg/injection, schedule: Q06DX002 (ip), vehicle: saline, higher T/C = longer survival) was 2 of 8 and the survivor count (T/C endpoint: median survival time, dose: 65.0 mg/kg/injection, schedule: Q## X002 (ip), vehicle: saline, higher T/C = longer survival) was 0 of 8.
In the case of `O=C(CBr)OCCOc1ccccc1`, the survivor count (T/C endpoint: mean tumor weight (est.), dose: 40.0 mg/kg/injection, schedule: Q01DX011 (ip), vehicle: saline with Tween-80, higher T/C = larger tumour) is reported as 3 of 8, the survivor count (T/C endpoint: median survival time, dose: 40.0 mg/kg/injection, schedule: Q01DX011 (ip), vehicle: saline with Tween-80, higher T/C = longer survival) is reported as 3 of 8 and the survivor count (T/C endpoint: median survival time, dose: 80.0 mg/kg/injection, schedule: Q01DX011 (ip), vehicle: saline with Tween-80, higher T/C = longer survival) is reported as 0 of 8.
With `O=C(c1ccccc1)C(O)(CC(c1ccccc1)[P+](c1ccccc1)(c1ccccc1)c1ccccc1)c1ccccc1` (stereo not drawn) the survivor count (T/C endpoint: mean tumor weight (est.), dose: 6.25 mg/kg/injection, schedule: Q01DX011 (ip), vehicle: saline, higher T/C = larger tumour) was 1 of 8, the survivor count (T/C endpoint: median survival time, dose: 6.25 mg/kg/injection, schedule: Q01DX011 (ip), vehicle: saline, higher T/C = longer survival) was 1 of 8 and the survivor count (T/C endpoint: median survival time, dose: 12.5 mg/kg/injection, schedule: Q01DX011 (ip), vehicle: saline, higher T/C = longer survival) was 0 of 8. For the same compound, the survivor count [2] was 0 of 8.
`C=CCN1/C(=C/C=C\c2sc3ccccc3[n+]2CC=C)Sc2ccccc21` was tested, and the survivor count (T/C endpoint: median survival time, dose: 1.0 mg/kg/injection, schedule: Q01DX011 (ip), vehicle: saline, higher T/C = longer survival) was 8 of 8.
In the case of `COC1N(C2CC(O)C(CO)O2)C(=O)NC(=O)C1(F)Br` (stereo not drawn), the T/C (T/C endpoint: median survival time, dose: 10.0 mg/kg/injection, schedule: Q01DX011 (ip), vehicle: saline, higher T/C = longer survival) is reported as 128 % of control [7 of 8 alive], the survivor count [1] is reported as 6 of 8 and the survivor count (T/C endpoint: median survival time, dose: 40.0 mg/kg/injection, schedule: Q01DX011 (ip), vehicle: saline, higher T/C = longer survival) is reported as 1 of 8. For the same compound, the survivor count (T/C endpoint: median survival time, dose: 80.0 mg/kg/injection, schedule: Q01DX011 (ip), vehicle: saline, higher T/C = longer survival) was 0 of 8.
